Patent publication US20130017978
For some assays here: Protein sequences can lack the tags named with them. For some assays here: The exact form of at least one protein or probe is not confirmed.

Sequences of proteins named here, by UniProt entry; tags and fusion partners are left off. A change or cut given only in a name is not applied to a line headed by its entry.
UniProt P07636: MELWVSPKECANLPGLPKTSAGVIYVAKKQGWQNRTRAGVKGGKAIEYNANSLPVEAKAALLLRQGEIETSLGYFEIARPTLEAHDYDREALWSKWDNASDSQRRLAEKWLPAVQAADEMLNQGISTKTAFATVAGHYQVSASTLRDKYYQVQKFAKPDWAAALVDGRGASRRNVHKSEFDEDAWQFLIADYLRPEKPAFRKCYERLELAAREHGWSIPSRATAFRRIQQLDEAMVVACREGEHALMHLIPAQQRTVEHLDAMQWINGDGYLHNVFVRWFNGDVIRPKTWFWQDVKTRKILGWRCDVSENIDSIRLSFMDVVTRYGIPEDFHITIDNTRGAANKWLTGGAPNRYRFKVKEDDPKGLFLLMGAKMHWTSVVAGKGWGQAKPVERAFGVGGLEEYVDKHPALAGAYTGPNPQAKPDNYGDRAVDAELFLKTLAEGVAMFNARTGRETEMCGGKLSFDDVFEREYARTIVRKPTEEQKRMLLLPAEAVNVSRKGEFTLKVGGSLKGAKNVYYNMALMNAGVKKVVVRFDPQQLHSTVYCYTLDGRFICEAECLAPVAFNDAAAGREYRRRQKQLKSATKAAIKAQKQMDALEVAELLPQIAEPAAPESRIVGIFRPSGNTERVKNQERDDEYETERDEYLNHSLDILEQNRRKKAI

Key:
Test in all cases: enzyme reaction in vitro
[1] = target: MuA transposase (UniProt P07636); conditions: purified recombinant protein, protein details: Thermo Fisher Scientific
[2] = test system: SgeI methylation-dependent restriction endonuclease (printed Sgel); conditions: purified recombinant protein, protein details: Thermo Fisher Scientific, label: 5'-33P
[3] = target: T1, RNase H (UniProt P0A7Y4); conditions: four ribonucleotides in each strand (rCrGrCrG in SEQ 10; rUrUrUrC region as printed GrUrUrUrCACG in SEQ 11); purified recombinant protein; protein details: Thermo Fisher Scientific; label: 5'-33P
T1 sequence (looked up, limits assumed): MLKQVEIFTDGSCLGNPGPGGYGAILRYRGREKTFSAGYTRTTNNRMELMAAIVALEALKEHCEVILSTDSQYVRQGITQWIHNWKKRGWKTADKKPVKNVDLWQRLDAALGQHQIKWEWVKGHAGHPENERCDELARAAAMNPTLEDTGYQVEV

[4] = target: T2, Uracil-DNA Glycosylase (UDG) (UniProt P12295); conditions: deoxyuracil at one position in each strand (U as printed); purified recombinant protein; protein details: Thermo Fisher Scientific; label: 5'-33P on SEQ 4 strand (Example 1)
T2 sequence (looked up, limits assumed): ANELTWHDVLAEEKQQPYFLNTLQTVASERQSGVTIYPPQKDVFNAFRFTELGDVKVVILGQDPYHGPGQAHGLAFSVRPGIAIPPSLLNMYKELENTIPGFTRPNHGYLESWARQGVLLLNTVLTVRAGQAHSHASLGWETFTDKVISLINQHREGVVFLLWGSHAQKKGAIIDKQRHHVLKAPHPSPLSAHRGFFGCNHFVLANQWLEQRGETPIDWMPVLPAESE

Question: For “GTTTTCGCATTTATCGTGAAACGCTTTCGCGTTTTTCGTGCGTCAGTTCA / TGCTGAACTGACGCACGAAAAACGCGAAAGCGTTTCACGATAAATGCGAAAAC [m5C Mu transposon 1 (Cut-key4 (SgeI-MU)/Non-cut-key4)]”, which “activity on this sequence” value ([1]; 5mC at C15 of SEQ 6 (GTTTTCGCATTTATmCGTG), label: 5'-33P) is on record?
Answer: active

Question: And the “activity on this sequence” value ([2]; 5mC at C15 of SEQ 6 (GTTTTCGCATTTATmCGTG))?
Answer: active

Question: Which “activity on this sequence” value ([1]; four ribonucleotides in each strand (rCrGrCrG in SEQ 10; rUrUrUrC region as printed GrUrUrUrCACG in SEQ 11), label: 5'-33P) does the source give for “GTTTTCGCATTTATCGTGAAACGCTTTCGCGTTTTTCGTGCGTCAGTTCA / TGCTGAACTGACGCACGAAAAACGCGAAAGCGUUUCACGATAAATGCGAAAAC [RNA/DNA hybrid Mu transposon (CK_RNR/DNR-2 / NCK_RNR/DNR-2)]” here?
Answer: active

Question: And the “activity on this sequence” value [3]?
Answer: active

Question: For “GTTTTCGCATTTATCGTGAAACGCTTTCGCGTTTTTCGTGCGTCAGTTCA / TGCTGAACTGACGCACGAAAAACGCGAAAGCGTTTCACGATAAATGCGAAAAC [m5C Mu transposon 2 (Cut-key4/Non-cut-key4 (SgeI-MU))]”, which “activity on this sequence” value ([1]; 5mC at C14 of SEQ 9 (TGCTGAACTGACGmCACG), label: 5'-33P) is on record?
Answer: active

Question: And the “activity on this sequence” value ([2]; 5mC at C14 of SEQ 9 (TGCTGAACTGACGmCACG))?
Answer: active

Question: For “GTTTTCGCATTTATCGTGAAACGCTTTCGCGUTTTTCGTGCGTCAGTTCA / TGCTGAACTGACGCACGAAAAACGCGAAAGCGTUTCACGATAAATGCGAAAAC [Uracil Mu transposon end (Ck4_UDG12ntMU/NCk4_UDG12ntMU)]”, which “activity on this sequence” value ([1]; deoxyuracil at one position in each strand (U as printed), label: 5'-33P on SEQ 4 strand (Example 1)) is on record?
Answer: active

Question: What about the “activity on this sequence” value [4] of the same sequence?
Answer: active
